Experimental data reported in PubChem BioAssay AID493014 (National Center for Advancing Translational Sciences (NCATS), 2011).
The whole screen tested about 340,000 compounds, of which about 170 (0.05%) were called active. The shares of active, inactive and inconclusive entries below differ from those in the screen. Calls follow the shape of the dose curve; as a rule, active = well fitted inhibition curve with a large enough effect in the signal ratio, with a control signal flat (not every such curve was filed as active); inconclusive = small, poorly fitted or top-dose-only effect, or effect the other way, or a change in a side signal; inactive = flat fitted curve, though single readings scatter; the % refers to the signal ratio. A potency beside an inconclusive call is a rough fit, not a confirmed value.

Test: qHTS Assay to Find Inhibitors of Chronic Active B-Cell Receptor Signaling;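 as to activity change, negative = inhibition: plate controls were basal doxycycline-induced cells for no effect and cells given 10 µM MG132 for full effect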
Conditions: ABC-DLBCL IkBa-CBG/CBR reporter, luminescence ratio (green luciferase fused to IkBa over red control in TMD8 lymphoma cells), 4 h; activity change, negative = inhibition: at 46.1 µM (top of the series)
Outline: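 Concentration-response series (up to 46 uM) were applied to TMD8 dual-reporter cells for 4 h at 37C with doxycycline. Green/red ratio, after filter-overlap correction, defined %Activity; red signal alone was normalised to basal cells and zero luminescence.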
Potency is read from the fitted curve at half-maximal effect.

| Compound | Potency | activity change, negative = inhibition |
| --- | --- | --- |
| CC(C)C(=O)N1CCN(CCN=Cc2c(O)n(C)c(=O)n(C)c2=O)CC1 | inconclusive: 35.5 µM [falling, single point] | – |
| O=c1[nH]c(=S)n(Cc2ccc(F)cc2)c(O)c1C=NCc1ccc2c(c1)OCO2 | – | inactive |
| CCN1CC2(COC(=O)c3ccccc3N)CCC(OC)C34C5CC6C(OC)CC(O)(C5C6OC)C(O)(C(OC)C23)C14 (stereo not drawn) | – | inconclusive: 0.94% |
| C[C@]12CCC3C(CC[C@H]4C[C@@H](O)CC[C@]34C)C1C[C@@H](Br)[C@H]2O (stereo partly drawn) | – | inactive |
| COc1ccc(C2=NCc3nnc(C)n3-c3ccc(Cl)cc32)cc1Cl | inconclusive: 6.51 µM [falling, partial curve, poor fit] | – |
| CNc1ccc2oc(C[C@H]3O[C@@]4(CC[C@H]3C)O[C@H]([C@H](C)C(=O)c3ccc[nH]3)[C@H](C)C[C@H]4C)nc2c1C(=O)O | – | inactive |
| CCOP(=O)(c1ccc(N(C)C)cc1)C(O)c1ccc(C)cc1 (stereo not drawn) | – | inconclusive: -0.401% |
| CNC(=O)O/N=C(\N)Cc1csc2ccc(Cl)cc12 | – | inconclusive: -8.12% |
| CCOC(=O)Cn1c(=O)oc2cc(S(=O)(=O)Nc3ccc(N(CC)CC)cc3C)ccc21 | – | inconclusive: -69.7% |
| COc1ccc(OC)c([C@@H](O)[C@H](C)NC(C)(C)C)c1 | inconclusive: 5.01 µM [falling, partial curve, poor fit] | – |
| COc1ccc(C[C@@H]2CN3C(=NC[C@@H]3Cc3ccc(O)cc3)N2C[C@H](C)NC(=O)CCC2CCCCC2)cc1 | – | inconclusive: -2.95% |
| CCCCCn1c(=O)c(C(=O)Nc2nc(CC(=O)OCC)cs2)c(O)c2ccccc21 | – | inactive |
| CC1=CC(=C2C(=O)NC(=S)NC2=O)C=C(C(F)(F)F)N1Cc1ccccc1 | inconclusive: 3.16 µM [falling, partial curve, poor fit] | – |
| Cn1cc(C(=O)OCC(=O)Nc2ccccc2Cl)c2ccccc21 | inconclusive: 5.17 µM [falling, partial curve] | – |
| Cn1c(O)c(C=NCc2ccco2)c(=O)n(C)c1=O | – | inconclusive: 9.95% |
| CC[C@]12CC[C@H](O)CC1=CCC1C2CC[C@]2(C)C(=O)CCC12 (stereo partly drawn) | – | inconclusive: -4.55% |
| C/C(=N\NC(=O)c1ccccc1Cl)c1c(O)n(C2CCCCC2)c(=O)[nH]c1=O | inconclusive: 12.6 µM [falling, partial curve] | – |
| CCOC(=O)c1c(C)[nH]c(C)c1C(=O)C(Cc1ccccc1)N(C)C (stereo not drawn) | – | inconclusive: 3.09% |
| COCC(=O)Nc1nnc(CCc2ccccc2)s1 | – | inconclusive: 2.98% |
| Cc1ccc(N2C(=O)CS(=O)C(c3ccccc3)C2=O)cc1C (stereo not drawn) | inconclusive: 28.2 µM [falling, single point] | – |
| CCOc1cc(-c2noc(CCC(=O)Nc3cccnc3)n2)ccc1OC | – | inconclusive: 2.07% |
| O=C(/C=C/c1ccc(Br)cc1)NC(=S)N1C[C@H]2C[C@H](C1)c1cccc(=O)n1C2 | – | inconclusive: -6.59% |
| CCNC(=S)NCCC1=c2ccccc2=N/C1=C\c1c(O)n(C)c(=O)n(C)c1=O | inconclusive: 12.6 µM [falling, partial curve, poor fit] | – |
| O=C(CN1CC(c2ccccc2)CC1=O)Nc1ccccc1 (stereo not drawn) | – | inconclusive: 14.9% |
| COc1cc(NS(=O)(=O)c2cc(Br)cc3c2N(C(=O)C2CC2)CC3)cc(OC)c1 | inconclusive: 8.91 µM [falling, partial curve, poor fit] | – |

| Compound | Potency | activity change, negative = inhibition |
| --- | --- | --- |
| OCCN1CCN(c2nc(-c3ccccc3)c3cc(Br)ccc3n2)CC1 | – | inconclusive: -14% |
| C=CC1CN2CCC1CC2C(OC(C)=O)c1ccnc2ccc(OC)cc12 (stereo not drawn) | – | inactive |
| Cc1cccc(CN2CCN(c3ccc(Cl)cc3)CC2)c1 | – | inactive |
| CN(C)c1ccc(P(=O)(Nc2ccc([N+](=O)[O-])cc2)N2CCOCC2)c(NC(=O)c2cccs2)c1 (stereo not drawn) | – | inconclusive: 9.49% |
| COC(=O)[C@@H]1C[C@H]1[C@@H](NP(=O)(c1ccccc1)c1ccccc1)c1ccccc1 | – | inconclusive: -14.4% |
| Cc1ccc(NC(=O)Cn2c(=O)oc3ccccc32)cc1 | inconclusive: 3.98 µM [falling, partial curve] | – |
| COc1cccc(C(=O)NNC(=O)C2CC(C)=C(C)CC2C(=O)O)c1 (stereo not drawn) | inconclusive: 35.5 µM [rising, single point] | – |
| CC(Cc1ccccc1)N1Cc2ccccc2C1 (stereo not drawn) | – | inconclusive: 8.56% |
| CC(C)c1ccc(C2NCc3ccccc3-n3cccc32)cc1 (stereo not drawn) | – | inconclusive: -2.32% |
| CC(=O)Nc1ccccc1C(=O)OCc1cccc(F)c1 | – | inconclusive: 1.49% |
| CN1CCN(c2cc(N3CCCCCC3)c(F)cc2[N+](=O)[O-])CC1 | – | inconclusive: -12% |
| CC(C)(C)NC(=O)CN1CCCN(C(=O)COc2ccc(Cl)c3ccccc23)CC1 | inconclusive: 16.4 µM [falling, single point] | – |
| Cc1ccc(/C=C2\C(=O)NC(=S)N(c3ccc(F)cc3)C2=O)s1 | – | inactive |
| CSc1ccc(CNC2CN3CCC2CC3)cc1 (stereo not drawn) | inconclusive: 29.1 µM [rising, single point] | – |
| CN1CCN(c2ccc(NC(=O)c3ccc(-c4ccc(Cl)cc4)o3)cc2)CC1 | – | inconclusive: -12.7% |
| CC(Cc1ccccc1)N1C(=O)c2ccccc2C1=O (stereo not drawn) | – | inconclusive: 7.71% |
| COC(=O)C1=C(c2ccccc2OCc2ccccc2)C[C@@H]2CC[C@H]1N2C(=O)NCc1ccc([N+](=O)[O-])cc1 | – | inconclusive: 0.6% |
| CNC(=O)c1cccn(Cc2cccc(C(F)(F)F)c2)c1=O | – | inconclusive: 9.48% |
| COc1cccc(N2C(=O)NC(=O)/C(=C/c3ccc4c5c(cccc35)CC4)C2=O)c1 | inconclusive: 20.6 µM [falling, single point] | – |
| CC1CN(c2ccc([N+](=O)[O-])c(N3CCCCC3)c2)CCN1 (stereo not drawn) | inconclusive: 35.5 µM [falling, single point] | – |
| CCOc1ccc(/C=C/C2=CC(C)(C)NC(=S)N2)cc1 | inconclusive: 17.8 µM [falling, partial curve, poor fit] | – |
| CCN(CC)c1ccc(CNCCc2ccccc2F)cc1 | inconclusive: 14.1 µM [falling, partial curve] | – |
| CCOCCc1c(O)[nH]c(=S)[nH]c1=O | inconclusive: 11.2 µM [falling, partial curve] | – |
| c1cc2c(cc1[C@H]1OCC3C1CO[C@@H]3c1ccc3c(c1)OCO3)OCO2 (stereo partly drawn) | – | inconclusive: -1.17% |
| COc1ccc(N2C(=O)/C(=C/c3ccc(C)o3)C(=O)NC2=S)cc1 | – | inactive |

| Compound | Potency | activity change, negative = inhibition |
| --- | --- | --- |
| O=C(O)CC1OCC=C2CN3CCC45C6=CC(=O)C(=O)C([N+](=O)[O-])=C6NC4C1C2CC35 (stereo not drawn) | – | inactive |
| CCn1c(O)c(C=Nc2ccc(S(N)(=O)=O)cc2)c(=O)n(CC)c1=S | – | inconclusive: -5.35% |
| CCOP(=O)(Cc1ccc(C(C)(C)CC(C)=O)o1)OCC | – | inconclusive: -0.107% |
| O=C(Nc1ccc2c(c1)OCO2)c1cccn(Cc2cccc([N+](=O)[O-])c2)c1=O | – | inactive |
| COc1ccc(N2C(=O)NC(=O)/C(=C/c3ccc([N+](=O)[O-])s3)C2=O)cc1 | – | inactive |
| Cc1ccc(NC(=O)CSc2nnc([C@@H](N)Cc3c[nH]c4ccccc34)o2)c(C)c1 | inconclusive: 12.6 µM [falling, partial curve, poor fit] | – |
| COCCCn1c(N)c(C(=O)NCc2ccco2)c2nc3ccccc3nc21 | – | inconclusive: 11.8% |
| c1ccc(CNCCc2c[nH]c3ccccc23)cc1 | – | inactive |
| Cc1cc(C(=O)OCC(=O)Nc2ccccc2F)c(C)n1C1CC1 | inconclusive: 18.4 µM [falling, partial curve] | – |
| C[C@H]1CC[C@@H]2[C@@H](C)[C@H]3[C@H](C[C@H]4[C@@H]5CC=C6C[C@@H](O[C@@H]7O[C@H](CO)[C@H](O)[C@H](O[C@@H]8O[C@H](CO)[C@@H](O)[C@H](O)[C@H]8O)[C@H]7O[C@@H]7O[C@@H](C)[C@H](O)[C@@H](O)[C@H]7O)CC[C@]6(C)[C@H]5CC[C@]34C)N2C1 | inconclusive: 18.4 µM [rising, partial curve, poor fit] | – |
| C#CCOc1ccc2c(c1)c(C(C)=O)c(C)n2Cc1ccccc1 | – | inconclusive: -16.5% |
| COc1cc(/C=C/c2nc3ccccc3c(=O)n2-c2ccccc2O)ccc1O | inconclusive: 12.6 µM [falling, partial curve] | – |
| Oc1ccc(CC2CC3CCN2CC3)cc1O (stereo not drawn) | – | inconclusive: 17.9% |
| C/C(=C\c1ccc(N(C)C)cc1)[N+](=O)[O-] | inconclusive: 35.5 µM [falling, single point] | – |
| Cc1ccc(-c2nc(N3CCOCC3)s[n+]2-c2ccccc2)cc1 | – | inactive |
| Cc1cc(OCC(=O)N2CCC(C(=O)O)(c3ccccc3)CC2)c2c(C)c(C)c(=O)oc2c1 | – | inactive |
| C[n+]1c2ccccc2nc2ccc(NCCO)cc21 | inconclusive: 2.51 µM [rising, partial curve, poor fit] | – |
| C=CCn1c(O)c(/C(C)=N/NC(=S)Nc2ccccc2)c(=O)[nH]c1=O | – | inconclusive: -15.5% |
| C=C1N2CCC(CC2)C1(O)c1ccc(C)cc1 (stereo not drawn) | inconclusive: 3.66 µM [rising, single point] | – |
| CC1(C)C(C(=O)NN2C(=O)c3ccccc3C2=O)C1(C)C | – | inconclusive: 12.8% |
| CCOC(=O)C(NC(=O)C(Cc1ccc(N(CCCl)CCCl)cc1)NC(C)=O)C(C)C (stereo not drawn) | – | inactive |
| O=C(NCc1ccccc1)Oc1cccc(Cl)c1 | – | inconclusive: 6.34% |
| CCn1c(O)c(/C=N/NC(=O)c2ccccc2)c(=O)n(CC)c1=S | inconclusive: 8.91 µM [falling, partial curve] | – |

Some of these compounds in order of SMILES length, low to high:

| Compound | Potency | activity change, negative = inhibition |
| --- | --- | --- |
| O=C(NCc1ccccc1)Oc1cccc(Cl)c1 | – | inconclusive: 6.34% |
| CCn1c(O)c(C=Nc2ccc(S(N)(=O)=O)cc2)c(=O)n(CC)c1=S | – | inconclusive: -5.35% |
| COc1ccc(N2C(=O)NC(=O)/C(=C/c3ccc([N+](=O)[O-])s3)C2=O)cc1 | – | inactive |
